Source: publication PMC8763920 (Nature Communications, 2022)
HELM strings list residues between dots; [ac] is acetyl, [am] amide, other brackets name non-standard units.

Assay: general procedure: Fmoc solid-phase peptide synthesis; rink amide resin; HATU/DIPEA
Details: cyclisation step

In order of rising cyclisation yield:
1. PEPTIDE1{[ac].E.N.P.E.[XL].I.L.D.[XL].H.V.Q.R.V.M.[am]}|CHEM1{[SC7S]}$PEPTIDE1,CHEM1,6:R3-1:R1|PEPTIDE1,CHEM1,10:R3-1:R2$$$V2.0  49%
2. PEPTIDE1{[ac].E.N.P.E.[XL].I.L.D.[XL].H.V.Q.R.V.M.[am]}|CHEM1{[SC8S]}$PEPTIDE1,CHEM1,6:R3-1:R1|PEPTIDE1,CHEM1,10:R3-1:R2$$$V2.0  52%
3. PEPTIDE1{[ac].E.N.P.E.[XL].I.L.D.[XL].H.V.Q.R.V.M.[am]}|CHEM1{[pBDMT]}$PEPTIDE1,CHEM1,6:R3-1:R1|PEPTIDE1,CHEM1,10:R3-1:R2$$$V2.0  52%
4. PEPTIDE1{[ac].E.N.P.E.[XL].I.L.D.[XL].H.V.Q.R.V.M.[am]}|CHEM1{[SC5S]}$PEPTIDE1,CHEM1,6:R3-1:R1|PEPTIDE1,CHEM1,10:R3-1:R2$$$V2.0  55%
5. PEPTIDE1{[ac].Q.S.Q.Q.T.F.[XL].N.L.W.R.L.L.[XL].Q.N.[am]}|CHEM1{[BPDMT]}$PEPTIDE1,CHEM1,8:R3-1:R1|PEPTIDE1,CHEM1,15:R3-1:R2$$$V2.0  55%
6. PEPTIDE1{[ac].E.N.P.E.[XL].I.L.D.[XL].H.V.Q.R.V.M.[am]}|CHEM1{[SC6S]}$PEPTIDE1,CHEM1,6:R3-1:R1|PEPTIDE1,CHEM1,10:R3-1:R2$$$V2.0  59%
7. PEPTIDE1{[ac].E.N.P.E.[XL].I.L.D.[XL].H.V.Q.R.V.M.[am]}|CHEM1{[mBDMT]}$PEPTIDE1,CHEM1,6:R3-1:R1|PEPTIDE1,CHEM1,10:R3-1:R2$$$V2.0  63%
8. PEPTIDE1{E.[XL].I.L.D.[XL].H}|CHEM1{[mBDT]}$PEPTIDE1,CHEM1,2:R3-1:R1|PEPTIDE1,CHEM1,6:R3-1:R2$$$V2.0  64%
9. PEPTIDE1{[ac].Q.S.Q.Q.T.F.[XL-S].N.L.W.R.L.L.[XL-S].Q.N.[am]}|CHEM1{[C7DT]}$PEPTIDE1,CHEM1,8:R3-1:R1|PEPTIDE1,CHEM1,15:R3-1:R2$$$V2.0  65%
10. PEPTIDE1{[ac].Q.S.Q.Q.T.F.[XL-S].N.L.W.R.L.L.[XL-S].Q.N.[am]}|CHEM1{[C8DT]}$PEPTIDE1,CHEM1,8:R3-1:R1|PEPTIDE1,CHEM1,15:R3-1:R2$$$V2.0  69%
11. PEPTIDE1{[FITC].[bAla].K.K.Y.A.K.Q.L.A.D.[XL].I.I.K.[XL].A.T.E.[am]}|CHEM1{[mBDMT]}$PEPTIDE1,CHEM1,12:R3-1:R1|PEPTIDE1,CHEM1,16:R3-1:R2$$$V2.0  74%
12. PEPTIDE1{[ac].Q.S.Q.Q.T.F.[XL].N.L.W.R.L.L.[XL].Q.N.[am]}|CHEM1{[BDMT14]}$PEPTIDE1,CHEM1,8:R3-1:R1|PEPTIDE1,CHEM1,15:R3-1:R2$$$V2.0  74%
